In assay [1] the target is T1, CD6 pY629 peptide (biotin-SSGEWpYQNFQP) (human).
T1 sequence (peptide, biotin on the N-terminus; phosphotyrosine at Y629): SSGEWYQNFQP
In words: affinity purification with mass spectrometry; biotinylated peptide (50 μg) on Dynabeads M-280 streptavidin, multivalent; lysates of Jurkat T cells stimulated with ionomycin and PMA for 24 h; 18 h at 4°C; washed with 0.1% Triton X-100 in PBS; only the target purified.

Assay [2] has as its target T2, control peptide (biotin-…).
T2 sequence (peptide, biotin on the N-terminus): HVDNEYSQPPRNS
The description is as above.

Results are given in words; binding and its absence hold for the method and conditions named. In cells and extracts the contact can be indirect. These calls come from enrichment with a bait or labelling near it, and not all partners need be listed. For some assays here: A no says only that the protein was not detected with the bait.

B1: GRB2-related adaptor downstream of Shc (GADS), endogenous (protein, UniProt O75791 1-330)
chain: MEAVAKFDFTASGEDELSFHTGDVLKILSNQEEWFKAELGSQEGYVPKNFIDIQFPKWFHEGLSRHQAENLLMGKEVGFFIIRASQSSPGDFSISVRHEDDVQHFKVMRDNKGNYFLWTEKFPSLNKLVDYYRTNSISRQKQIFLRDRTREDQGHRGNSLDRRSQGGPHLSGAVGEEIRPSMNRKLSDHPPTLPLQQHQHQPQPPQYAPAPQQLQQPPQQRYLQHHHFHQERRGGSLDINDGHCGTGLGSEMNAALMHRRHTDPVQLQAAGRVRWARALYDFEALEDDELGFHSGEVVEVLDSSNPSWWTGRLHNKLGLFPANYVAPMTR
B1: the binding entry in assay [1] is listed as “binds”; in assay [2], “no binding”.

These data come from publication PMC5440646, “T Cell Costimulation by CD6 Is Dependent on Bivalent Binding of a GADS/SLP-76 Complex” (Molecular and Cellular Biology, 2017).
